Laboratory results: PubChem BioAssay AID652243 (Drosophila RNAi Screening Center, 2013)
Test: 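Knock-downs that decrease or increase androgen receptor reporter signal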 (primary screen). System: Drosophila S2R+ cells. Reagents: long dsRNA against Drosophila genes. Duration: 72 h (48 h, then 24 h hormone). Challenge: synthetic androgen R1881 at 10 nM for 24 h. Detection: 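Firefly light from an androgen-responsive reporter and Renilla control light per well, raw and unnormalised, for each of two replicates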. Direction: firefly reporter light: higher = more light from androgen-responsive reporter; Renilla control light: higher = more constitutive control signal (cell number, transfection). Rule for the call: 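Across duplicate plates, a knock-down whose log firefly/Renilla ratio shifted a set fold down or up from the GFP/LacZ control mean was a hit; the downward cut appears as both 1.5 and 3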. Meaning of the calls: active = hit: reporter lowered or raised; inactive = no hit.
The deposit covers about 24,000 reagents; shown is an unselected part of those that have a named target and a result. In the full data, 246 (1%) got an active call. 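Plates not normalised; calls are printed but the firefly/Renilla ratio behind them is not deposited; fold cut for lowering reported inconsistently.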 Raw values vary from plate to plate and are shown uncorrected. Names joined by + are all predicted targets of the reagent. Not stated in the record: the amount of reagent.

firefly reporter light, replicate 1 | firefly reporter light, replicate 2 | Renilla control light, replicate 1 | Renilla control light, replicate 2 | activity call | gene | amplicon
2.52e5 | 2.94e5 | 2.88e6 | 2.70e6 | inactive | Eh | DRSC16660
73821 | 68132 | 8.22e5 | 8.26e5 | inactive | Elp5 | DRSC08547
9.47e5 | 4.17e5 | 1.41e6 | 1.02e6 | inactive | CG18480 | DRSC01957
8.97e5 | 9.08e5 | 9.34e5 | 9.29e5 | inactive | CG18480 | DRSC24949
1.02e6 | 1.02e6 | 2.33e6 | 2.51e6 | inactive | CG33758 | DRSC38885
6.65e5 | 5.80e5 | 1.84e6 | 1.12e6 | inactive | SA1 | DRSC03424
2.70e5 | 6.09e5 | 9.36e5 | 1.52e6 | inactive | SA1 | DRSC28222
1.18e6 | 1.43e6 | 1.02e6 | 1.10e6 | inactive | CNT2 | DRSC07073
4.15e5 | 5.91e5 | 3.59e6 | 3.88e6 | inactive | Syt12 | DRSC19359
1.43e5 | 1.29e5 | 4.47e5 | 4.18e5 | inactive | tn (retired record) | DRSC05768
4.91e5 | 5.96e5 | 1.18e6 | 1.24e6 | inactive | tn (retired record) | DRSC06532
2.33e5 | 2.69e5 | 4.80e5 | 7.26e5 | inactive | tn (retired record) | DRSC27711
2.81e5 | 2.45e5 | 7.27e5 | 6.81e5 | inactive | dpr10 | DRSC09015
2.97e5 | 2.15e5 | 2.51e6 | 2.28e6 | inactive | dpr10 | DRSC10159
1.88e5 | 1.90e5 | 2.03e6 | 1.69e6 | inactive | dpr10 | DRSC10160
1.23e5 | 1.72e5 | 6.63e5 | 1.06e6 | inactive | CG15429 | DRSC00444
2.69e5 | 2.41e5 | 2.57e5 | 3.40e5 | inactive | CG15429 | DRSC26501

Records above whose target name starts with T or t (3):
firefly reporter light, replicate 1 | firefly reporter light, replicate 2 | Renilla control light, replicate 1 | Renilla control light, replicate 2 | activity call | gene | amplicon
1.43e5 | 1.29e5 | 4.47e5 | 4.18e5 | inactive | tn (retired record) | DRSC05768
4.91e5 | 5.96e5 | 1.18e6 | 1.24e6 | inactive | tn (retired record) | DRSC06532
2.33e5 | 2.69e5 | 4.80e5 | 7.26e5 | inactive | tn (retired record) | DRSC27711

Additional reagents follow:
firefly reporter light, replicate 1 | firefly reporter light, replicate 2 | Renilla control light, replicate 1 | Renilla control light, replicate 2 | activity call | gene | amplicon
2.63e5 | 1.76e5 | 2.09e6 | 2.25e6 | inactive | CG7568 | DRSC16259
4.34e5 | 7.96e5 | 1.25e6 | 1.99e6 | inactive | CG7568 | DRSC28378
6.01e5 | 4.99e5 | 1.44e6 | 1.44e6 | inactive | Cpr49Ae | DRSC07201
4.32e5 | 4.11e5 | 6.01e5 | 9.27e5 | inactive | Cpr49Ae | DRSC27662
6.64e5 | 7.39e5 | 2.01e6 | 1.96e6 | inactive | B-H2 | DRSC23012
4.41e5 | 5.61e5 | 7.19e5 | 7.11e5 | inactive | B-H2 | DRSC25817
81260 | 48041 | 1.58e5 | 1.27e5 | inactive | kek5 | DRSC19438
3.35e5 | 4.09e5 | 4.63e5 | 5.84e5 | inactive | kek5 | DRSC24470
4.74e5 | 4.76e5 | 1.62e6 | 1.70e6 | inactive | kek5 | DRSC39004
3.78e5 | 3.85e5 | 3.20e6 | 2.94e6 | inactive | Mvb12 | DRSC20027
1.38e5 | 1.69e5 | 9.53e5 | 1.36e6 | inactive | ref(2)P | DRSC03601
94878 | 1.65e5 | 6.70e5 | 4.37e5 | inactive | IntS6 | DRSC18281
2.08e6 | 1.34e6 | 1.48e6 | 1.21e6 | inactive | IntS6 | DRSC30100
2.41e5 | 1.54e5 | 2.78e6 | 2.27e6 | inactive | Amt | DRSC16055
4.38e5 | 3.90e5 | 2.43e6 | 1.38e6 | inactive | Amt | DRSC27970
66885 | 59133 | 1.15e5 | 1.17e5 | inactive | Tm1 | DRSC13082
1.09e5 | 72392 | 1.86e5 | 1.66e5 | inactive | Tm1 | DRSC13083
1.16e5 | 61787 | 7.48e5 | 6.98e5 | inactive | Tm1 | DRSC16886
2.82e5 | 3.16e5 | 7.66e5 | 5.73e5 | inactive | Tm1 | DRSC25249
6.89e5 | 5.06e5 | 1.23e6 | 1.42e6 | inactive | Tm1 | DRSC39135
7.30e5 | 5.78e5 | 7.90e5 | 6.35e5 | inactive | Gem4b + Gem4c | DRSC17294
7.16e5 | 5.38e5 | 1.48e6 | 1.12e6 | inactive | CG13847 | DRSC23172
2.65e5 | 1.70e5 | 3.22e6 | 2.42e6 | inactive | sv | DRSC17221
2.79e5 | 2.87e5 | 7.42e5 | 7.32e5 | inactive | sv | DRSC27256
